The record followed here is the supplement of paper PMC10849652.

Protein sequences, listed by entry. Tags and fused reporters are not part of them. Lines headed by an entry give the natural chain unless they say otherwise; changes in a name come on top.
UniProt Q10713: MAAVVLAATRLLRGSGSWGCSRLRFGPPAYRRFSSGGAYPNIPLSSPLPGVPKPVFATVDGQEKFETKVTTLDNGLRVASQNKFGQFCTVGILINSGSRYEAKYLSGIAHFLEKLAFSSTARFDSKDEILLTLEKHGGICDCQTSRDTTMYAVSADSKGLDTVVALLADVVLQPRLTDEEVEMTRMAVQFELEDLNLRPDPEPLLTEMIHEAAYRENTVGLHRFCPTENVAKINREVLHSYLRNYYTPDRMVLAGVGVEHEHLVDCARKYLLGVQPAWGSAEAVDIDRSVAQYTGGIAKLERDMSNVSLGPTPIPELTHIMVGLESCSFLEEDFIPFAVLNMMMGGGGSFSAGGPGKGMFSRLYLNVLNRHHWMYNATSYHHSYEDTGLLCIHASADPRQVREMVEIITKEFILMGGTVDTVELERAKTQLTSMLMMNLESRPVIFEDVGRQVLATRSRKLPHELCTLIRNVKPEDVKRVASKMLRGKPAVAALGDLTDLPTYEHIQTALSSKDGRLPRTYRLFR
UniProt O95707: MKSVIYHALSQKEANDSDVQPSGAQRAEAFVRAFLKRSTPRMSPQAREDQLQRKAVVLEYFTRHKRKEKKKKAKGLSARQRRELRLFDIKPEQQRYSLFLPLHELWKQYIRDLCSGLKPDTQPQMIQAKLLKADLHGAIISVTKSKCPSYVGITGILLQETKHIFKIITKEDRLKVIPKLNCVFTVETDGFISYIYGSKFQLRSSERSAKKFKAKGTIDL
UniProt Q9P215: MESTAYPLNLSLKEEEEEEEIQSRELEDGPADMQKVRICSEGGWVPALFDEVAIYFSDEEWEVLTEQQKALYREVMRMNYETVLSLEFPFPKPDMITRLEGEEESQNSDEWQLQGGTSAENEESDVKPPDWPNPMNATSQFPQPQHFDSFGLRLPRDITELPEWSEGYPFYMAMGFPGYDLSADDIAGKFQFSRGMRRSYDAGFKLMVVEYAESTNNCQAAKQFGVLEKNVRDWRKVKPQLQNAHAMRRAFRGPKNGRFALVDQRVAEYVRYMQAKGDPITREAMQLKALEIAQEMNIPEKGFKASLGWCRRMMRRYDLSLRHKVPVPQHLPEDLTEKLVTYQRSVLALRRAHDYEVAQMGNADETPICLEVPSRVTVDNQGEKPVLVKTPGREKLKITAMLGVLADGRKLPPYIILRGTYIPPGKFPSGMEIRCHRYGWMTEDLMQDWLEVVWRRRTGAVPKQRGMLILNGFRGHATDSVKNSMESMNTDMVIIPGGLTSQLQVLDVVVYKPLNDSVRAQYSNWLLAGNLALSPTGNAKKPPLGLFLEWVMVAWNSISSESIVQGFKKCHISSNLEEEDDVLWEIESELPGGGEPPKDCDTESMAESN
UniProt P62937, whole entry, looked up: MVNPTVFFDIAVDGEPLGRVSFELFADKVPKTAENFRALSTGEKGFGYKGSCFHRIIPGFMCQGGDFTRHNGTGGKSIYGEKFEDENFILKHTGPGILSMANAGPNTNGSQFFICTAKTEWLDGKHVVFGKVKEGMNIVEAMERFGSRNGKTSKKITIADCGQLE
UniProt Q15063: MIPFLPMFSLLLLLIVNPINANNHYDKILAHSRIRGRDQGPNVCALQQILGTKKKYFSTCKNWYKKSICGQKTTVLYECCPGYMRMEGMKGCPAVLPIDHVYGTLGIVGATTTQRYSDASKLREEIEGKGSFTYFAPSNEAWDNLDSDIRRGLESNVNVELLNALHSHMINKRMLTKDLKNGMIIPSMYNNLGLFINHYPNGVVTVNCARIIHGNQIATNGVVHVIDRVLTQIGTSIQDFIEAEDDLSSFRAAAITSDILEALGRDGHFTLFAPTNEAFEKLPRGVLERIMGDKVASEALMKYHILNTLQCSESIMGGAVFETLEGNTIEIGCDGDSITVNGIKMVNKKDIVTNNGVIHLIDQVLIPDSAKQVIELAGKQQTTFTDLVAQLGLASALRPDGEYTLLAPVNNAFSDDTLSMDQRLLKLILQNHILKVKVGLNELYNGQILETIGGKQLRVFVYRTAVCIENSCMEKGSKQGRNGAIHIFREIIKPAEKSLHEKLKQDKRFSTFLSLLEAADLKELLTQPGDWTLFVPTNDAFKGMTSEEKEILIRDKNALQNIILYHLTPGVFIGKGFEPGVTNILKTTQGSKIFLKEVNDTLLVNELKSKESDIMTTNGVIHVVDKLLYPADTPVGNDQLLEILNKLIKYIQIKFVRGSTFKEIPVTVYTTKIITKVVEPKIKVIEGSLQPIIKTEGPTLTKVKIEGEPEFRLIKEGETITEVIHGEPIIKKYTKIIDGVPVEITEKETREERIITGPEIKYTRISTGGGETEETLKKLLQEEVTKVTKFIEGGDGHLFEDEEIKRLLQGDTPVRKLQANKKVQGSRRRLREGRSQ
UniProt Q9NQ55: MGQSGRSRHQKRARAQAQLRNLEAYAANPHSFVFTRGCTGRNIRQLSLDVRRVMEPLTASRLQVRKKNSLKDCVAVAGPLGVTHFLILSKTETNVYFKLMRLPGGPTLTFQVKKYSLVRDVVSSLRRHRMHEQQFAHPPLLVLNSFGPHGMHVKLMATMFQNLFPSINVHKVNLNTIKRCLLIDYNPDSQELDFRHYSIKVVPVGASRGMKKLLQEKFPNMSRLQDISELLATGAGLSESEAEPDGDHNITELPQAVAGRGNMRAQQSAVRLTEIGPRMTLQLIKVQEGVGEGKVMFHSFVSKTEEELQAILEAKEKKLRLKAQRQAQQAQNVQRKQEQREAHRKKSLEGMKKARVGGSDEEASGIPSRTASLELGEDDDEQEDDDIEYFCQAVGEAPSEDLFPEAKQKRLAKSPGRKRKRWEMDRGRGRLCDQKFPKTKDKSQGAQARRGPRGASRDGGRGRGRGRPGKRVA
UniProt O15031: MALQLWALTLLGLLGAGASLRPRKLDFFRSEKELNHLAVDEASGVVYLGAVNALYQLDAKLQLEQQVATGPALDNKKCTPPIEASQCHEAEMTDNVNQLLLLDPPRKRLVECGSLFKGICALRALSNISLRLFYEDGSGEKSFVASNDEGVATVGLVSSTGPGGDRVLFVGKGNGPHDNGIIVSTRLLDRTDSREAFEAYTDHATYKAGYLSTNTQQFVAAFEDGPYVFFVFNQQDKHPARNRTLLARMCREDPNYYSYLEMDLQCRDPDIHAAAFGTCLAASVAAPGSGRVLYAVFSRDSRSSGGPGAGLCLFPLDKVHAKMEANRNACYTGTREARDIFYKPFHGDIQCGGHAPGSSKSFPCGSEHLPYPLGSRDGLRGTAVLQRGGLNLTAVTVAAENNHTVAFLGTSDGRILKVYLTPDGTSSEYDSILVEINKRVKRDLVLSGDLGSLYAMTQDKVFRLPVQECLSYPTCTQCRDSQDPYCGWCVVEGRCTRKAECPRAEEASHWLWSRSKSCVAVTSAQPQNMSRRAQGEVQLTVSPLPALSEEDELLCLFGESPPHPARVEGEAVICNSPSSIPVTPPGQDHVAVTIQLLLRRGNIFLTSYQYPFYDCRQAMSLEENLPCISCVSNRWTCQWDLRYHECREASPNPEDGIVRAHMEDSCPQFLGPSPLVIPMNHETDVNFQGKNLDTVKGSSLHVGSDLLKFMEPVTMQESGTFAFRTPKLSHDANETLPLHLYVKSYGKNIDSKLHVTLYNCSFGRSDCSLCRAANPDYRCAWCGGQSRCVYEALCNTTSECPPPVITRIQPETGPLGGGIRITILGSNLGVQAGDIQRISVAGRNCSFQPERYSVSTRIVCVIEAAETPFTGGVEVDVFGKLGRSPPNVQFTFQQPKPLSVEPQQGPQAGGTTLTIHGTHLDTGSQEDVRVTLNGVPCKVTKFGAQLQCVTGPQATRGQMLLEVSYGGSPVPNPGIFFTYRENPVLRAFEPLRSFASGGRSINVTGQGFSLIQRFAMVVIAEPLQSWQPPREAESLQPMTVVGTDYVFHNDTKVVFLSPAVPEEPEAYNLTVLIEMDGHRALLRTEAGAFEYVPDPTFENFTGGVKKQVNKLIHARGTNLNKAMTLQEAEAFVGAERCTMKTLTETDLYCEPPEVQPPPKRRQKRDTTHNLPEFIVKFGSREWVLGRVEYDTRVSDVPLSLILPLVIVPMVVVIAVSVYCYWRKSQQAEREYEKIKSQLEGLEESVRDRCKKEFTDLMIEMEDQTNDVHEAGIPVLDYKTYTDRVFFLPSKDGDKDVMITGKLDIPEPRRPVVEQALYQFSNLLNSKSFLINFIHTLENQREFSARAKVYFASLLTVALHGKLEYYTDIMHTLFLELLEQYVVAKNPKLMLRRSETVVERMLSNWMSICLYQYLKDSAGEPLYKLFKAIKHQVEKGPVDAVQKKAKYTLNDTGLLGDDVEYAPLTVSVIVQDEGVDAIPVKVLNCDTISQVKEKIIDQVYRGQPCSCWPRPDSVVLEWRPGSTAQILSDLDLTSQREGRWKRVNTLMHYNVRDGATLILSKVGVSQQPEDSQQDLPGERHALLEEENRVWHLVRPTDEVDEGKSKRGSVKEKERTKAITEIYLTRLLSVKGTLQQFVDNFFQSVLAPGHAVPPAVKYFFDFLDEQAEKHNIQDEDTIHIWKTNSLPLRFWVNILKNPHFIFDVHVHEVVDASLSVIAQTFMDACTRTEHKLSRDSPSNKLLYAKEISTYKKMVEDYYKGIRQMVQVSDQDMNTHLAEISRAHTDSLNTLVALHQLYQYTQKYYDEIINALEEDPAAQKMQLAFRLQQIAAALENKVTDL
UniProt Q969H6: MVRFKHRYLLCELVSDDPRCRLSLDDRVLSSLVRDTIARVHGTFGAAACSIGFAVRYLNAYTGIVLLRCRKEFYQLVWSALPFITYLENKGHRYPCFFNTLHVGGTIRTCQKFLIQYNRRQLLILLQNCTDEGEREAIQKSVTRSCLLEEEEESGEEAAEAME
UniProt Q96AD5: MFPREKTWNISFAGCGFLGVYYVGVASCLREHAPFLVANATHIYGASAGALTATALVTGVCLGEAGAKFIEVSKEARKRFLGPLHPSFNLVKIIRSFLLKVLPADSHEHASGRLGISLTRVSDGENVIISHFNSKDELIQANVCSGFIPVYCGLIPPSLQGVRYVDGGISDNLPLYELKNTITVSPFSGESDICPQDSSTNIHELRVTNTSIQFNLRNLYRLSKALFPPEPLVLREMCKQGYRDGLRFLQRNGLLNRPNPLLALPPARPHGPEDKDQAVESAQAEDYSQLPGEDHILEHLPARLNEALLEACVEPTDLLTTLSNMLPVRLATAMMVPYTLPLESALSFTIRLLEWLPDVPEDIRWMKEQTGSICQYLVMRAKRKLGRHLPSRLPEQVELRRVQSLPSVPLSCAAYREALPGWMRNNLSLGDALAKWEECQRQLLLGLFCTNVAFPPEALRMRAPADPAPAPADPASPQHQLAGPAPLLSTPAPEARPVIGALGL
UniProt Q14181: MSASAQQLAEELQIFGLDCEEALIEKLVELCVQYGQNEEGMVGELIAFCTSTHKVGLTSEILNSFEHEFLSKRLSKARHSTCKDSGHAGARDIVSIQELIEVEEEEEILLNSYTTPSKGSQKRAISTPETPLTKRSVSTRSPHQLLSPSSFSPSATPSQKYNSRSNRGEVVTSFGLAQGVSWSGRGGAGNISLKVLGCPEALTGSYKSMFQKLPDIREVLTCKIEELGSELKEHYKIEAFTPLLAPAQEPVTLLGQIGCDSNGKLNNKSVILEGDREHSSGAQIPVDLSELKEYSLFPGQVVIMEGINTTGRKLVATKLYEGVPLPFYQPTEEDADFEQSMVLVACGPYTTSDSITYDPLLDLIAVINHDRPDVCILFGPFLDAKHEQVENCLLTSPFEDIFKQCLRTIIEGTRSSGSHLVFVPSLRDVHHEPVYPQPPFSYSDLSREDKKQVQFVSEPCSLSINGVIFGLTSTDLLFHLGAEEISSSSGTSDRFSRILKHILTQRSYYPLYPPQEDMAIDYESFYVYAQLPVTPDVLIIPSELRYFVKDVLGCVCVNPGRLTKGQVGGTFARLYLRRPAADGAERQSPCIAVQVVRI
UniProt Q9NUX5: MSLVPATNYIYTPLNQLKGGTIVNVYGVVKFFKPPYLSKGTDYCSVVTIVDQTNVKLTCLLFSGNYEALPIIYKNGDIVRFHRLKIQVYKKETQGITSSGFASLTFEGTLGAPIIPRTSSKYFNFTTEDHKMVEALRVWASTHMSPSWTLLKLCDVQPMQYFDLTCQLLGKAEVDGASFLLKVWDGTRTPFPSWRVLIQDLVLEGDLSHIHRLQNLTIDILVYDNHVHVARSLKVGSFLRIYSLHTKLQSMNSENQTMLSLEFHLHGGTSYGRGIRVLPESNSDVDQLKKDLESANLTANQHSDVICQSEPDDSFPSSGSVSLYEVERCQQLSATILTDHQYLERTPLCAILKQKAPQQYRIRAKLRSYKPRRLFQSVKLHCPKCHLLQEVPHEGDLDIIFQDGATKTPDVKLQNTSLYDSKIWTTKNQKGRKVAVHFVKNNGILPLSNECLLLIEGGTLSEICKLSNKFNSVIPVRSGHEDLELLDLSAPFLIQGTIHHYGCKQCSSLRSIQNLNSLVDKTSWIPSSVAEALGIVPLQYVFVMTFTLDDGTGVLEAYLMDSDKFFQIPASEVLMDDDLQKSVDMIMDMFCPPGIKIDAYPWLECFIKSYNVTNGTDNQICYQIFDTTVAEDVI

The other results are listed elsewhere or left out.

Compound in one experiment: C1=CC=C2C(=C1)C3=NNC4=CC=CC(=C43)C2=O
Description: log2 fold change, soluble protein after heating vs DMSO (PISA); higher = thermal stabilisation; K562 lysate, 10 uM; active = over 0.2 and 3.5 SD of the protein, either way, in both replicates (recomputed). Put shortly:
(§1)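 Soluble protein was defined as the supernatant remaining after 21,000xg for 90 min, following pooling of heated aliquots and adjustment to 0.5% NP-40 at 4°C. Before that, crude K562 extract at 1 mg/mL protein in PBS pH 7.4 with 1 mM MgCl2 was treated with 10 μM compound for 30 min and heated for 3 min across 48°C-58°C. Quantification used TMTpro 16plex LC-MS/MS with channel sums equalised, and values are log-two fold changes in thermal stability relative to solvent controls from duplicates.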
PNISR (UniProt Q8TF01): the log2 fold change is inactive: 0.014.
For PMPCA (UniProt Q10713), the log2 fold change was inactive: -0.014.
On the same count and under the same terms, under POP4 (UniProt O95707) stands inactive: -0.004; under PLOD1 (UniProt Q02809), inactive: -0.008; under POLR3B (UniProt Q9NW08), inactive: -0.01.
On the same count and under the same terms, as for PMM1 (UniProt Q92871), the figure is inactive: -0.01; as for POLR3H (UniProt Q9Y535), inactive: -0.023; as for POLR3G (UniProt O15318), inactive: -0.009.
The same measure, in the same setting: under POGK (UniProt Q9P215) stands inactive: -0.03.
On to PPIA (UniProt P62937), for which the log2 fold change is inactive: 0.023.
Same read-out and setting: as for PPA2 (UniProt Q9H2U2), the figure is inactive: 0.009.
On to POSTN (UniProt Q15063), for which the log2 fold change is inactive: 0.1.
Same read-out and setting: as for PPAN isoform 3 (UniProt Q9NQ55), the figure is inactive: 0.032.
Still for that read-out and setting: as for PNPLA6 (UniProt Q8IY17), the figure is inactive: -0.092.
With POLE3 (UniProt Q9NRF9), the log2 fold change was inactive: 0.024.

Compound in another experiment: C1CCN(C1)C(=O)NC2=CC=CC(=C2)NC3=NC=C(C(=N3)NCCC4=CN=CN4)Br
The description is as above. Put shortly: as §1
For the target POLD1 (UniProt P28340), the log2 fold change was inactive: -0.006.
Still for that read-out and setting: under POLR1D (UniProt P0DPB6) stands inactive: -0.037; under POLR2G (UniProt P62487), inactive: -0.002.
On the same count and under the same terms, as for PNKD isoform 2 (UniProt Q8N490), the figure is inactive: -0.082; as for POP1 (UniProt Q99575), inactive: 0.007.
The same measure, in the same setting: as for POLR2B (UniProt P30876), the figure is inactive: 0.002.
Regarding POGLUT2 (UniProt Q6UW63), the log2 fold change is inactive: 0.008.
On the same count and under the same terms, as for PLXNA1 (UniProt Q9UIW2), the figure is inactive: 0.012; as for PPIB (UniProt P23284), inactive: -0.007; as for POLR1B isoform 3 (UniProt Q9H9Y6), inactive: -0.038.
On the same count and under the same terms, as for PMF1 (UniProt Q6P1K2), the figure is inactive: -0.06.
On the same count and under the same terms, under PLXNB2 (UniProt O15031) stands inactive: -0.017.
Take PNKD (UniProt Q8N490): the log2 fold change was inactive: 0.01.
On to PPFIA2 (UniProt O75334), for which the log2 fold change is inactive: 0.02.
The same measure, in the same setting: under POP5 (UniProt Q969H6) stands inactive: -0.046; under POLR2H (UniProt P52434), inactive: -0.013.
Still for that read-out and setting: as for POLD3 (UniProt Q15054), the figure is inactive: -0.058; as for PMM2 (UniProt O15305), inactive: 0.017.
For POLD2 (UniProt P49005), the log2 fold change is inactive: -0.015.
Still for that read-out and setting: under PNPLA2 (UniProt Q96AD5) stands inactive: -0.003; under PPFIA1 (UniProt Q13136), inactive: 0.036.
Still for that read-out and setting: under POLA2 (UniProt Q14181) stands inactive: -0.02; under POT1 (UniProt Q9NUX5), inactive: 0.01; under PNISR (UniProt Q8TF01), inactive: -0.009.
The same measure, in the same setting: as for PMPCA (UniProt Q10713), the figure is inactive: -0.026; as for POP4 (UniProt O95707), inactive: 0.006.
As to PLOD1 (UniProt Q02809), the log2 fold change is inactive: 0.
Still for that read-out and setting: under POLR3B (UniProt Q9NW08) stands inactive: -0.01; under PMM1 (UniProt Q92871), inactive: 0.021.
As to POLR3H (UniProt Q9Y535), the log2 fold change was inactive: -0.006.
In the case of POLR3G (UniProt O15318), the log2 fold change is inactive: 0.02.
Same read-out and setting: under POGK (UniProt Q9P215) stands inactive: 0; under PPIA (UniProt P62937), inactive: 0.01.
Still for that read-out and setting: as for PPA2 (UniProt Q9H2U2), the figure is inactive: -0.001.
For the target POSTN (UniProt Q15063), the log2 fold change is inactive: -0.079.
Still for that read-out and setting: under PPAN isoform 3 (UniProt Q9NQ55) stands inactive: -0.056; under PNPLA6 (UniProt Q8IY17), inactive: 0.11; under POLE3 (UniProt Q9NRF9), inactive: 0.005.
